This is an account of results in the supplement of paper PMC7666118.

Protein sequences, listed by entry. Tags and fused reporters are not part of them. Lines headed by an entry give the natural chain unless they say otherwise; changes in a name come on top.
UniProt Q9NUQ9: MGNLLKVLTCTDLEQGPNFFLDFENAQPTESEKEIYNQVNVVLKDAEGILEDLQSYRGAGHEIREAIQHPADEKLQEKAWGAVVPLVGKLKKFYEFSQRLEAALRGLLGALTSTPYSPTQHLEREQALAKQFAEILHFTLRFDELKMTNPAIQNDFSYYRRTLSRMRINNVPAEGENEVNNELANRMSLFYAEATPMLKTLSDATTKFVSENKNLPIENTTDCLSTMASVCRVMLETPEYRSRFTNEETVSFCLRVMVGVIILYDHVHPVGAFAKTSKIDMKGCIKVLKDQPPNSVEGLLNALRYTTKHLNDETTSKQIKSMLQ
UniProt Q9UF56, whole entry: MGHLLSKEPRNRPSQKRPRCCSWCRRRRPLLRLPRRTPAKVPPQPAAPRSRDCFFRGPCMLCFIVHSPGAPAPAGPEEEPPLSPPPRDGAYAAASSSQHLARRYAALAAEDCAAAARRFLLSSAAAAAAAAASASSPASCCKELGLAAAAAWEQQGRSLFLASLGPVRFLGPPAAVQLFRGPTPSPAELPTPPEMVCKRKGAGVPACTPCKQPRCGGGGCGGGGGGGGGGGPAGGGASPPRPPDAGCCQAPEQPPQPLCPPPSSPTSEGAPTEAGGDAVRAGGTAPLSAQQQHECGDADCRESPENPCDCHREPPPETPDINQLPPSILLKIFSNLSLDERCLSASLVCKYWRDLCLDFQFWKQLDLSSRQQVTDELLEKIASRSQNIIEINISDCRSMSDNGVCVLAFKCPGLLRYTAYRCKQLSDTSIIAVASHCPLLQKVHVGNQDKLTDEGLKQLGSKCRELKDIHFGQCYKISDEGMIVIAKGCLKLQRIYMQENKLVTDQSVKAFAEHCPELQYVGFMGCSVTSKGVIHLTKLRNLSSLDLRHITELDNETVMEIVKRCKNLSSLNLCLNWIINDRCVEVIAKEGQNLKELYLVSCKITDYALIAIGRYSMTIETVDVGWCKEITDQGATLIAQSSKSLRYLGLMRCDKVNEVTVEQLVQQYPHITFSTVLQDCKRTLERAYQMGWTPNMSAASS
UniProt Q8NEZ5: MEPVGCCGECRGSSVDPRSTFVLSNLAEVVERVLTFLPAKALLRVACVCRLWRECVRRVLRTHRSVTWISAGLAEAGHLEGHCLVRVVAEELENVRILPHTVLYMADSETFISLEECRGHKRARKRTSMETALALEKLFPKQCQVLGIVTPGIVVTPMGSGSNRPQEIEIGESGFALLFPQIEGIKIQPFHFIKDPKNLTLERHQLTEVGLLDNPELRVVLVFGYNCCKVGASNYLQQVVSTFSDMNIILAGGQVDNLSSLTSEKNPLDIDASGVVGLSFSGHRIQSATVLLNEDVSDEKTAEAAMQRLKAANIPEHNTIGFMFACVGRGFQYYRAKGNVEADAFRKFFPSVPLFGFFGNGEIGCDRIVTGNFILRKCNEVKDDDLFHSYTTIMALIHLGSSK
UniProt Q9H8W3: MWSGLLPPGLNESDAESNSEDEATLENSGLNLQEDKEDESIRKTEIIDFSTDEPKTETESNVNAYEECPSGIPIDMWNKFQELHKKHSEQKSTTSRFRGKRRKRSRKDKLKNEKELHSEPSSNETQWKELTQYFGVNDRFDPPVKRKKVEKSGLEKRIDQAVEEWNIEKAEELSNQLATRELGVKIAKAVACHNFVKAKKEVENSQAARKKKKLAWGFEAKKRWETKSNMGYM
UniProt Q9H501: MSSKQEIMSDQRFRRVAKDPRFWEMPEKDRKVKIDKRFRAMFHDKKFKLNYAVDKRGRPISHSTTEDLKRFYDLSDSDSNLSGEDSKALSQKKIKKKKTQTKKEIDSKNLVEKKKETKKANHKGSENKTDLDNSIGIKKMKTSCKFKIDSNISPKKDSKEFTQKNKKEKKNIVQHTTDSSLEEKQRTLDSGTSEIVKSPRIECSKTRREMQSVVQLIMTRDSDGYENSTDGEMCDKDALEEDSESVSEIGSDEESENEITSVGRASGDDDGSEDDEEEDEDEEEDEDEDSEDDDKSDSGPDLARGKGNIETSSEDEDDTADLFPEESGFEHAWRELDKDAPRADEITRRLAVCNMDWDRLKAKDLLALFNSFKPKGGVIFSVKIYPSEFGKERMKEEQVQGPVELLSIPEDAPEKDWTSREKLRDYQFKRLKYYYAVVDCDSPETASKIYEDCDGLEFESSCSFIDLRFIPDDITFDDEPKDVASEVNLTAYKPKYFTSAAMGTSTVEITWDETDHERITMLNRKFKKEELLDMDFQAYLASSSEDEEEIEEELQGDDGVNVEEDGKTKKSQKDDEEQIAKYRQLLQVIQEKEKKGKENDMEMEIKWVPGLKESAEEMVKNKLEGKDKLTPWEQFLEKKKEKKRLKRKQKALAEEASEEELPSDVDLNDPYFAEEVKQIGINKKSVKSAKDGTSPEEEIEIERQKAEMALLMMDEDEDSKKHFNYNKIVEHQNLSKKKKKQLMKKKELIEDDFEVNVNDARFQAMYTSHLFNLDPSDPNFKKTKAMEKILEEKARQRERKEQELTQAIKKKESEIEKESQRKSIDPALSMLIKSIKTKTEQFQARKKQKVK
UniProt Q17RN3: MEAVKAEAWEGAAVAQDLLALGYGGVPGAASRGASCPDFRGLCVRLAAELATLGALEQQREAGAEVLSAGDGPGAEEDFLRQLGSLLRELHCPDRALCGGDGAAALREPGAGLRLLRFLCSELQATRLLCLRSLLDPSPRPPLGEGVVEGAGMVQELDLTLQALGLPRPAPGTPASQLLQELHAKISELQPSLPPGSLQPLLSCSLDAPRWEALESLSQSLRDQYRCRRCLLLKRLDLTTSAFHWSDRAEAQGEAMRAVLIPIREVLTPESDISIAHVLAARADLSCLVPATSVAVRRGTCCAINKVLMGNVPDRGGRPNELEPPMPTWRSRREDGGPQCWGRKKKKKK
UniProt Q96KP1: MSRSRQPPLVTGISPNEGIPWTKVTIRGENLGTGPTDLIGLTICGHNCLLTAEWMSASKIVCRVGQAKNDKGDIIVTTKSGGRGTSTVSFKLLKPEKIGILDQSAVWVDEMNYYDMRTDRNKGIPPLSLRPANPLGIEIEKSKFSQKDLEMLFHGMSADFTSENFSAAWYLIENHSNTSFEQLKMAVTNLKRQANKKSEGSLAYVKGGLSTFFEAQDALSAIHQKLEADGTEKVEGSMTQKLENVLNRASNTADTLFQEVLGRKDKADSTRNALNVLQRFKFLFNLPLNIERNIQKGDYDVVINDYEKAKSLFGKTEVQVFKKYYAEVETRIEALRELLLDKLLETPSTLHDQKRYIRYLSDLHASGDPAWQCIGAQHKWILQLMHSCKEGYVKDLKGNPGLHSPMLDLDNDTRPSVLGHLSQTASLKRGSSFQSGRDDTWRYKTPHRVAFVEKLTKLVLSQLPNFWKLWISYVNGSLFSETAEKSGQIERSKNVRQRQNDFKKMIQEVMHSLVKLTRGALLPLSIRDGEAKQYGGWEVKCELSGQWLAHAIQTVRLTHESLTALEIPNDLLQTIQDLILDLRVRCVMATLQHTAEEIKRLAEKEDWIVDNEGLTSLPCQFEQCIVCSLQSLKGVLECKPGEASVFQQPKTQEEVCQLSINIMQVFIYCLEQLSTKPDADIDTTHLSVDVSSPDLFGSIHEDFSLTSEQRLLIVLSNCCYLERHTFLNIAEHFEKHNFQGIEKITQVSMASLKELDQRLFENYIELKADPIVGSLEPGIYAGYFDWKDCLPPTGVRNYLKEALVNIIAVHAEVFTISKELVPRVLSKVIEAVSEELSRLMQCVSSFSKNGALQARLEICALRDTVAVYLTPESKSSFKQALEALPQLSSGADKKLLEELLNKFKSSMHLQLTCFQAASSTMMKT
UniProt P60842, whole entry: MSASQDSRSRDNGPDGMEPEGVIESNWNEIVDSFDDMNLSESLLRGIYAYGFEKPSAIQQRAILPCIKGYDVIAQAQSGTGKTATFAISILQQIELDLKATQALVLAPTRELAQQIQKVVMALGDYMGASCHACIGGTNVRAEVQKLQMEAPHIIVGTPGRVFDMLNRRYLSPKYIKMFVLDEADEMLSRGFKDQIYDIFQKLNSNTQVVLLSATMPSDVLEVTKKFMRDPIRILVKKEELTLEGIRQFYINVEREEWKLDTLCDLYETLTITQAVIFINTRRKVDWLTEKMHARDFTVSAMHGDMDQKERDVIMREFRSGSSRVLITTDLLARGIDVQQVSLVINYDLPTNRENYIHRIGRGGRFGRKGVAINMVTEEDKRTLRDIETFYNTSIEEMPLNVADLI
UniProt Q9BXM9: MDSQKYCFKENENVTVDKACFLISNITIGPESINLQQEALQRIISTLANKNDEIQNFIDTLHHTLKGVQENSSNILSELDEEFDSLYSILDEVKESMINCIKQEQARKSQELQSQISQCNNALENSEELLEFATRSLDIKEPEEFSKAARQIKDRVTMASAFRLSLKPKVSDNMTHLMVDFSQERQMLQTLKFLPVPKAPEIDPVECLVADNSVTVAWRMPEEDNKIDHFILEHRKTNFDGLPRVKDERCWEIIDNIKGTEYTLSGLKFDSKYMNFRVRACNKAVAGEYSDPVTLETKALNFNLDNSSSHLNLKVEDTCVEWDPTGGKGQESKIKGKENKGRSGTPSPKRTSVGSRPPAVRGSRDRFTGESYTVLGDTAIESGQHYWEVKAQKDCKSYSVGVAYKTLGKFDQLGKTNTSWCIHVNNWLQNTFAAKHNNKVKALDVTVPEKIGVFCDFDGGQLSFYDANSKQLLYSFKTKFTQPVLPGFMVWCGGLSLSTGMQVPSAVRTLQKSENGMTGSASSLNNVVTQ
UniProt P10768: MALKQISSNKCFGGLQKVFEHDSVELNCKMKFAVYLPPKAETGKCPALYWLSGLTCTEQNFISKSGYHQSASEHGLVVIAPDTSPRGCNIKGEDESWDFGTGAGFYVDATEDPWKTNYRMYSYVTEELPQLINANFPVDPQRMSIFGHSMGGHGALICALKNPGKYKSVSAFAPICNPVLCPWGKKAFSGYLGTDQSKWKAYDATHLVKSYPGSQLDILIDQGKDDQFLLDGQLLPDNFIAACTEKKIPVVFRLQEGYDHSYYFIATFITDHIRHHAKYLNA
UniProt Q9NPA8: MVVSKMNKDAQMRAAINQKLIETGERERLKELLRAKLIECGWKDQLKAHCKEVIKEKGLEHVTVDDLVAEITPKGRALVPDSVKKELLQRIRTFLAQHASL
UniProt P15311, whole entry: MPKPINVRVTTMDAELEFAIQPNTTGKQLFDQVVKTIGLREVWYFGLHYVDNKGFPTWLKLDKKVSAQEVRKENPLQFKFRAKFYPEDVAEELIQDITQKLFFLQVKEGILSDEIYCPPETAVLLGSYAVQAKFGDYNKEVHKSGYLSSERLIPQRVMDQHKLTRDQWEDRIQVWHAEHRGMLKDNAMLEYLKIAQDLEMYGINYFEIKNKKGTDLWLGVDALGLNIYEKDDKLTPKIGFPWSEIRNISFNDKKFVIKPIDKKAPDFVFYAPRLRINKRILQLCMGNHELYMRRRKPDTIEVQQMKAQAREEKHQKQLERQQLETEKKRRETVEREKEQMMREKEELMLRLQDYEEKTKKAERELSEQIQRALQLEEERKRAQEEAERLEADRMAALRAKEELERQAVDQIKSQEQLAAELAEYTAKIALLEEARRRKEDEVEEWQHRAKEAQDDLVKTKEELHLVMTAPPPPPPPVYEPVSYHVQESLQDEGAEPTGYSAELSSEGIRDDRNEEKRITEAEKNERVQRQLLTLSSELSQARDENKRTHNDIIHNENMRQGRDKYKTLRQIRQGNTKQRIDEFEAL
UniProt Q9BY44: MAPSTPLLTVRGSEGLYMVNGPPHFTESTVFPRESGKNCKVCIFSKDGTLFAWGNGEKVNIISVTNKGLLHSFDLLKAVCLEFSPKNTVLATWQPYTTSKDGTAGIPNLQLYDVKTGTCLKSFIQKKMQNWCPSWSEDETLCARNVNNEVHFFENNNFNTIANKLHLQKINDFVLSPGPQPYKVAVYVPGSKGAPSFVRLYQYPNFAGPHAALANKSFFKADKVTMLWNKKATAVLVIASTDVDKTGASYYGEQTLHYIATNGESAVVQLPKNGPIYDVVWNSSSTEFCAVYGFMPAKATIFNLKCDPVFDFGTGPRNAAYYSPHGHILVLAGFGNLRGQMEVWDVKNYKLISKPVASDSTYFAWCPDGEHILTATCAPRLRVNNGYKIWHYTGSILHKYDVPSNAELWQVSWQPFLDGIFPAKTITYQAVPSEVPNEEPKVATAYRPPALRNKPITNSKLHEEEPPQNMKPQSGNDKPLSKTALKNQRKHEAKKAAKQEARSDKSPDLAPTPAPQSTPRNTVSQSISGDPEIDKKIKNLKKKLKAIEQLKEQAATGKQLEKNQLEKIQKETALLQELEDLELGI
UniProt Q7Z309: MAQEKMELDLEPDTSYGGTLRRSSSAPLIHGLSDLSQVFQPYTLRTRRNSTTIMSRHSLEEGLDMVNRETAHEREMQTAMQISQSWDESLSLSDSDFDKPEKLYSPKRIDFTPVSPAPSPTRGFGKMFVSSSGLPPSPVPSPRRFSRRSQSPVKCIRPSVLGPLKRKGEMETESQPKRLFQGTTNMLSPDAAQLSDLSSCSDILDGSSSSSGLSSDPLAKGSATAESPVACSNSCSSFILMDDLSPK

The other results are listed elsewhere or left out.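 The calls were made as follows: active = dose-dependent thermal stabilisation significant by F-test of dose-response against flat model at 10% FDR; inactive = not significant.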

Compound in this experiment: Nc1nc2c(ncn2[C@@H]2O[C@H](COP(=O)(O)OP(=O)(O)OP(=O)(O)O)[C@@H](O)[C@H]2O)c(=O)[nH]1
The experiment in a line: dose-dependent thermal stabilisation call (2D-TPP, DLPTP, 10% FDR) (binary (1 = stabilised)); higher = stabilised by the compound. The note with it: system: Jurkat gel-filtered lysate; concentration range 1-500 µM.
On to FAM49B (UniProt Q9NUQ9), for which the “dose-dependent thermal stabilisation call” value is inactive: 0.
On to EIF3M (UniProt Q7L2H7), for which the “dose-dependent thermal stabilisation call” value is inactive: 0.
With FBXL17 (UniProt Q9UF56) the figure was inactive: 0.
The result for FYCO1 (UniProt Q9BQS8) reads inactive: 0; that for FBXO22 (UniProt Q8NEZ5), inactive: 0.
For FAM204A (UniProt Q9H8W3), the “dose-dependent thermal stabilisation call” value was inactive: 0.
With ELP5 (UniProt Q8TE02) the figure was inactive: 0.
ETAA1 (UniProt Q9NY74): the “dose-dependent thermal stabilisation call” value is inactive: 0.
Take ESF1 (UniProt Q9H501): the “dose-dependent thermal stabilisation call” value was inactive: 0.
With FAM98C (UniProt Q17RN3) the figure was active: 1; with FIS1 (UniProt Q9Y3D6), inactive: 0; with ELMO1 (UniProt Q92556), inactive: 0.
For EXOC2 (UniProt Q96KP1), the “dose-dependent thermal stabilisation call” value is inactive: 0.
Consider EIF3CL (UniProt B5ME19), for which the “dose-dependent thermal stabilisation call” value is inactive: 0.
The result for EIF4A1 (UniProt P60842) reads inactive: 0; that for FSD1L (UniProt Q9BXM9), inactive: 0.
As to FNBP1 (UniProt Q96RU3), the “dose-dependent thermal stabilisation call” value was inactive: 0.
The result for ERICH5 (UniProt Q6P6B1) reads inactive: 0; that for FBXO6 (UniProt Q9NRD1), active: 1; that for FAM172A (UniProt Q8WUF8), inactive: 0.
The result for FBXO38 (UniProt Q6PIJ6) reads inactive: 0; that for ESD (UniProt P10768), inactive: 0.
Consider ESPL1 (UniProt Q14674), for which the “dose-dependent thermal stabilisation call” value was inactive: 0.
In the case of ENY2 (UniProt Q9NPA8), the “dose-dependent thermal stabilisation call” value is inactive: 0.
With ERBIN (UniProt Q96RT1) the figure was inactive: 0; with EZR (UniProt P15311), inactive: 0; with FAM169A (UniProt Q9Y6X4), inactive: 0.
The result for EPRS (UniProt P07814) reads inactive: 0.
The result for EIF2B3 (UniProt Q9NR50) reads inactive: 0; that for EIF2A (UniProt Q9BY44), inactive: 0.
As for FBRSL1 (UniProt Q9HCM7), the “dose-dependent thermal stabilisation call” value is inactive: 0.
With FAM122B (UniProt Q7Z309) the figure was inactive: 0; with EFTUD2 (UniProt Q15029), active: 1; with EIF3J (UniProt O75822), inactive: 0.
For ELP2 (UniProt Q6IA86), the “dose-dependent thermal stabilisation call” value was inactive: 0.
With FKBP7 (UniProt Q9Y680) the figure was inactive: 0.
